According to patent US20210261570A1, “ANTIBIOTIC RESISTANCE BREAKERS” (KING'S COLLEGE LONDON, priority 2017, published 2021):
Entries after “also recorded” stand apart in the source; their conditions may differ.

Key:
EMRSA 15 strain = assay: Reserpine assay; assay type: cell-based, S. aureus; settings: compound at 0.25×MIC with reserpine
Method: (§1) A simple plate based method was used as described by Beyer et al. (24). […] Reserpine was added at a final concentration of 10 µg/mL (made up at 40 μg/mL in TSB, 50 μL per well). The bacteria were added at an OD of 0.01 in TSB (100 μL/well). The plate was a normal clear plate as used for MICs. OD was read every 30 minutes for 9 hours (the literature states 7 hours, but this is strain-dependent). Blanks of TSB and water were added to ensure no infections were present.
(§2) The mechanism of inhibition for reserpine involves direct binding to and competitive inhibition of the efflux pump during drug/H^+ antiport. This assay was validated as a method for testing active efflux of fluoroquinolones in Staphylococcus strains by Beyer et al. (24).

MSSA 9144 strain = assay: Reserpine assay; assay type: cell-based, S. aureus; settings: compound at 0.25×MIC with reserpine
Method: as §1, §2

Row | SMILES | efflux by the strain (reserpine assay) (EMRSA 15 strain) | efflux by the strain (reserpine assay) (MSSA 9144 strain)
1 | O=C(O)c1cn(C2CC2)c2cc(N3CCNCC3)c(F)cc2c1=O [Ciprofloxacin, ciprofloxacin, reference compound] | effluxed | effluxed
2 | O=C(O)c1cn(C2CC2)c2cc(N3CCN(Cc4cccc5ccccc45)CC3)c(F)cc2c1=O [ML-77-005] | cannot be effluxed; also recorded: not effluxed | cannot be effluxed; also recorded: not effluxed
